Experimental data published in the supplement of paper PMC10849652.
Some of the results follow.

Amino acid sequences for entries named in this document (tags omitted). A change or cut given only in a name is not applied to a line headed by its entry.
UniProt P00156: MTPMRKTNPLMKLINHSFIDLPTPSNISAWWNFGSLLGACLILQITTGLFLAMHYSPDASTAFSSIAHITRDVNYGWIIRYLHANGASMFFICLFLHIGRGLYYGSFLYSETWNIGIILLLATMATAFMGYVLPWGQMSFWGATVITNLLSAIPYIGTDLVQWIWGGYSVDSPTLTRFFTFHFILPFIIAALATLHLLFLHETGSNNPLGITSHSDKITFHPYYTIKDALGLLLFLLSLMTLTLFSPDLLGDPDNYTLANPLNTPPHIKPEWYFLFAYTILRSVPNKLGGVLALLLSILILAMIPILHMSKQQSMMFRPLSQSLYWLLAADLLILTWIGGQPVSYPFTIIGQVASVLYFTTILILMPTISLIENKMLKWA
UniProt Q9H2K0, whole entry, looked up: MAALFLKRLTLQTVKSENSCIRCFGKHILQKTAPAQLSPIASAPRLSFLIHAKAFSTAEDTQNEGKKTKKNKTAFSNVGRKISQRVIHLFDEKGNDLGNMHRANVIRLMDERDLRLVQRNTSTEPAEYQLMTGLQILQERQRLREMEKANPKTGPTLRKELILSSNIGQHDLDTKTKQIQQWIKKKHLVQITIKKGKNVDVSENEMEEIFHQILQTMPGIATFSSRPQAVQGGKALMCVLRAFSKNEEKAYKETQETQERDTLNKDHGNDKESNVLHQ
UniProt Q99417: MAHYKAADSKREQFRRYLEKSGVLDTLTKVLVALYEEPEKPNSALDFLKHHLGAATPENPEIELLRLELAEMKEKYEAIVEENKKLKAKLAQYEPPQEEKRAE
UniProt Q2M296: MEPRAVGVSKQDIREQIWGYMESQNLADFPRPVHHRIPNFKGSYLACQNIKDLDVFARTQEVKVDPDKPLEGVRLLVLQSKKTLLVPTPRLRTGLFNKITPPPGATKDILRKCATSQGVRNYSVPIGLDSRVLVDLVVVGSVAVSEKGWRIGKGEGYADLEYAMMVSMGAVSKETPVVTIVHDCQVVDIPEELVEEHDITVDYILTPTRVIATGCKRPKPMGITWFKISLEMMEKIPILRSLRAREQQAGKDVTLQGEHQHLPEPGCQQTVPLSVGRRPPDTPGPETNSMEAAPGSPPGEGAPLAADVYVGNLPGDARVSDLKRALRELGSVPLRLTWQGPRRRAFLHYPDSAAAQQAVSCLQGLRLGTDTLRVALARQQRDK
UniProt P26038, whole entry, looked up: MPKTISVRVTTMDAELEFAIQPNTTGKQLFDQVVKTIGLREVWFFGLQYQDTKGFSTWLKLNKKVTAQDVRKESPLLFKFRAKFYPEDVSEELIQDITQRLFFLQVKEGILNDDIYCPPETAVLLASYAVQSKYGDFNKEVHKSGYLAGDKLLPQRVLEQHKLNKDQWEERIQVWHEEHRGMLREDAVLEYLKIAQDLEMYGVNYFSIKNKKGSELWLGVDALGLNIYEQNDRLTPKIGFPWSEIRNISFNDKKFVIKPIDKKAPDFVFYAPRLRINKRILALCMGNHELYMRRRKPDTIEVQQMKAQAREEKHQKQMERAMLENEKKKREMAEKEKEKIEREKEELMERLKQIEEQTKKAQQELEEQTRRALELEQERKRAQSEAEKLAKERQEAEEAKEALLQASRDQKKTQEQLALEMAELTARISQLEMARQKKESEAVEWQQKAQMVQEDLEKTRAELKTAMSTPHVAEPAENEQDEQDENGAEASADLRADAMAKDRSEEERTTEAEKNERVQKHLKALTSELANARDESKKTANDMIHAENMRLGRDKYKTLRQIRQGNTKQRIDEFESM
UniProt Q9BTC8: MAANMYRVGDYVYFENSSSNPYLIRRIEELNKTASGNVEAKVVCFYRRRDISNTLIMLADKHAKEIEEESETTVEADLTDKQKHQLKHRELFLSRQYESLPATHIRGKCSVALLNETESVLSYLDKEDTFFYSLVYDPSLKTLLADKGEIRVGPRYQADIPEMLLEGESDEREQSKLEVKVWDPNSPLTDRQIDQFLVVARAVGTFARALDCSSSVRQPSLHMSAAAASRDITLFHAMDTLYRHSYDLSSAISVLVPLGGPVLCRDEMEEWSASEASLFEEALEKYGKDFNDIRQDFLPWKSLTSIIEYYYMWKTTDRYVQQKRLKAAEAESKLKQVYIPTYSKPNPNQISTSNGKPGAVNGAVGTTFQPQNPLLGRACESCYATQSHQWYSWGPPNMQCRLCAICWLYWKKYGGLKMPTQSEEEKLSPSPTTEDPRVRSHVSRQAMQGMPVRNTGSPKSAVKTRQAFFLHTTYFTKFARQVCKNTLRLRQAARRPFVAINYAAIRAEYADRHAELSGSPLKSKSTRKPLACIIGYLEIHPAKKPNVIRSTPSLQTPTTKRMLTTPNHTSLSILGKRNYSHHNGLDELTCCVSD
UniProt P13533, whole entry, looked up: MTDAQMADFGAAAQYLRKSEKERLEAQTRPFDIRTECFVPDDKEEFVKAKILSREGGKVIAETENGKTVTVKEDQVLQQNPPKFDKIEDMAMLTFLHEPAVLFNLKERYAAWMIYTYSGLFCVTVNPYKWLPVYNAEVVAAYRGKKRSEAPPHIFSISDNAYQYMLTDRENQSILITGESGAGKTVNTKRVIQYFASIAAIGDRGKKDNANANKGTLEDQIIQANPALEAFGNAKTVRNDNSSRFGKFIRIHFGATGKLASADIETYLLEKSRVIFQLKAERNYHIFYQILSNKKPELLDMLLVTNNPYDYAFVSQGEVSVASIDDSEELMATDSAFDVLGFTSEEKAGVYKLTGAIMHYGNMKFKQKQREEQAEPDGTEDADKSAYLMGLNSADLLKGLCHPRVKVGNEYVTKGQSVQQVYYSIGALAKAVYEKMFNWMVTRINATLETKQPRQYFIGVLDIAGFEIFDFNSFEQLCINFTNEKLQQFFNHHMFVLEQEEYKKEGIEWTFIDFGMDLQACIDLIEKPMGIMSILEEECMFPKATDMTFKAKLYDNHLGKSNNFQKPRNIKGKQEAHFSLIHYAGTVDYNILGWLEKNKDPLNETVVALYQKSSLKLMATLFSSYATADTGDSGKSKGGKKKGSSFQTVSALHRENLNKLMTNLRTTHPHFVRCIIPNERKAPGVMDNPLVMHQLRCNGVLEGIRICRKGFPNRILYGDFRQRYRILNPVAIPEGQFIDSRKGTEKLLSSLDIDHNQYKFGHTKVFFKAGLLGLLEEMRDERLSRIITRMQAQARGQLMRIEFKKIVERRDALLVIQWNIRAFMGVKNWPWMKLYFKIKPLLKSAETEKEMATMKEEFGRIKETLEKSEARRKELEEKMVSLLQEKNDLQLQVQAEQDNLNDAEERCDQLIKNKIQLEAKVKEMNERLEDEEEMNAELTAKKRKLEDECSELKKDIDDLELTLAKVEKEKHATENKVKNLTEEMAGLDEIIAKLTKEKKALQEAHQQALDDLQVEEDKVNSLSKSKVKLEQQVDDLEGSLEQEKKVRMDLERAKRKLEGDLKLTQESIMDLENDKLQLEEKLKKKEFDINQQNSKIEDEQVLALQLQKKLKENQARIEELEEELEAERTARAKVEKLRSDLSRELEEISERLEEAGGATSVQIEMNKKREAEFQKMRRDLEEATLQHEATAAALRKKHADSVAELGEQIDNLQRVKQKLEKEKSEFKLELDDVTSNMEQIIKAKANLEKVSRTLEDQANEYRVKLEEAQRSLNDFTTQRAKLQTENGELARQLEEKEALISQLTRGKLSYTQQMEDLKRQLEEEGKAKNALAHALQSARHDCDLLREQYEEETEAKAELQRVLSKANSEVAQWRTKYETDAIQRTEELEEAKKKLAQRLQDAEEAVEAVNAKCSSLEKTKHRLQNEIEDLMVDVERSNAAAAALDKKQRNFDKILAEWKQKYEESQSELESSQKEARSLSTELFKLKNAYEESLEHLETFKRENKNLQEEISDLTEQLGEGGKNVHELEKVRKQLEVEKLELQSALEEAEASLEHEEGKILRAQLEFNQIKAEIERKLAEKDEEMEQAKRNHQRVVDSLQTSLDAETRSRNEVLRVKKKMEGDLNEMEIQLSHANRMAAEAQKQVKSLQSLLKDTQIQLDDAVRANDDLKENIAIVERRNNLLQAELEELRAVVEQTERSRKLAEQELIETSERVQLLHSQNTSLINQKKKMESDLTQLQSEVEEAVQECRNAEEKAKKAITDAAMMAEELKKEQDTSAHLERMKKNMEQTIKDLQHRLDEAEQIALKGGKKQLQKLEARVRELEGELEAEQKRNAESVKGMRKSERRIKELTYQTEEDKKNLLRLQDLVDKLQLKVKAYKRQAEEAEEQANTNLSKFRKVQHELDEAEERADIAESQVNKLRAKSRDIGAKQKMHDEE
UniProt P14649: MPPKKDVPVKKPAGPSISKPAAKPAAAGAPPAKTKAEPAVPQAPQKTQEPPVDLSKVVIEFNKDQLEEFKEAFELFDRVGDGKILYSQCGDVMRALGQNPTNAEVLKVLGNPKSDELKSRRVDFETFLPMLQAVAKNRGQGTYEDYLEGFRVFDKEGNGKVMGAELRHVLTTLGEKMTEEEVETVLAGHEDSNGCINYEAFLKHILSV
UniProt O43795: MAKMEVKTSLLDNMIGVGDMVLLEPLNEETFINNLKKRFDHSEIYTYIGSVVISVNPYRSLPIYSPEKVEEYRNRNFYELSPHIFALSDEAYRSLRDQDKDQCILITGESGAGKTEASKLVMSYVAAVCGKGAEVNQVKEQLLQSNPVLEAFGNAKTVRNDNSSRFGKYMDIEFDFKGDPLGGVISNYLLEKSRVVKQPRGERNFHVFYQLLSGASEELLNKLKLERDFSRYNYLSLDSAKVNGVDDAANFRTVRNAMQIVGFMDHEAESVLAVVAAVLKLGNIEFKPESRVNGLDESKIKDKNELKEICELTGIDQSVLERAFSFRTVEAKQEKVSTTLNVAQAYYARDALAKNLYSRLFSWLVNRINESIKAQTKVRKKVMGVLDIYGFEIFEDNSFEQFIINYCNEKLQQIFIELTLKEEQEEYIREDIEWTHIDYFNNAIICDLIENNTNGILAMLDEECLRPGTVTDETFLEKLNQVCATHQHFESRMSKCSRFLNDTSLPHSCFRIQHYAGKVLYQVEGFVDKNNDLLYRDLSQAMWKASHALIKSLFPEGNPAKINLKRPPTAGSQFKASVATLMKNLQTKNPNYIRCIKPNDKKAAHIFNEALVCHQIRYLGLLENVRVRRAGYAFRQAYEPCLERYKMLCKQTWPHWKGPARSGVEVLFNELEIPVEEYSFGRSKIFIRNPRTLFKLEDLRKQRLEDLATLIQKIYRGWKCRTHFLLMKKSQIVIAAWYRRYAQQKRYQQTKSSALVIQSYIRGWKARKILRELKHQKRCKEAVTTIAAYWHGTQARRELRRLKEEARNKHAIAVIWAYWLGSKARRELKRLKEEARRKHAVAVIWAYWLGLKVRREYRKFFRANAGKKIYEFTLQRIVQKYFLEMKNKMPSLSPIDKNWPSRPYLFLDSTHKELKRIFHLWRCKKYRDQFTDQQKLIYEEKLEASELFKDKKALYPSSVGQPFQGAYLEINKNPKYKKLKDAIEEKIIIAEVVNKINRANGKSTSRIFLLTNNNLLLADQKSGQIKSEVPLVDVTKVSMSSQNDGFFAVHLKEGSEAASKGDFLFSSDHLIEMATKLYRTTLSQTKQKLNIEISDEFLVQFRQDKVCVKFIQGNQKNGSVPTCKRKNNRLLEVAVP
UniProt P03928: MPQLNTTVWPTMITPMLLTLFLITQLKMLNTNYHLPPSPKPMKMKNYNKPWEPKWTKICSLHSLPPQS

Legend:
Assay in all cases: log2 fold change, soluble protein after heating vs DMSO (PISA); higher = thermal stabilisation; K562 cells, 10 uM, 30 min; active = over 0.2 and 3.5 SD of the protein, either way, in both replicates (recomputed)
[1] = compound: C1=CC=C(C=C1)[C@H](COC2=CC3=C(C=C2)NC(=O)N3)NC(=O)C4=CC=CN(C4=O)CC5=CC(=C(C=C5)F)F
In short: (§1)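 Thermal stability values are relative to control samples and come from duplicates. They are expressed as log2 fold changes. For measurement, K562 cells (2×10^6 cells/mL) received 10 μM compound for 30 min, and aliquots were heated for 3 min over 48°C-58°C, pooled, and extracted at 4°C in PBS with 0.5% NP-40. Soluble protein, the supernatant after 21,000xg for 90 min, was quantified by TMTpro 16plex LC-MS/MS with equalised channel sums.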

[2] = compound: CC1=C(SC2=C1C(=N[C@H](C3=NN=C(N32)C)CC(=O)N)C4=CC=C(C=C4)Cl)C
In short: as §1

[3] = compound: CC1=C2C(=CC=C1)N=C(N(C2=O)C3=CC=CC=C3C)CN4C=NC5=C(N=CN=C54)N
In short: as §1

[4] = compound: Cc1sc2c(c1C)C(c1ccc(Cl)cc1)=N[C@@H](CC(=O)OC(C)(C)C)c1nnc(C)n1-2
In short: as §1

[5] = compound: c1ccc([C@@H]2C[C@H]2NC2CCNCC2)cc1
In short: as §1

Measured: log2 fold change

MT-CYB (UniProt P00156)
inactive: [1] 0.024 | [2] 0.079 | [3] 0.013 | [4] -0.057 | [5] 0.122

MTIF3 (UniProt Q9H2K0)
inactive: [1] -0.037 | [2] -0.116 | [3] -0.091 | [5] 0

MRPS14 (UniProt O60783)
inactive: [1] -0.011 | [2] -0.127 | [3] 0.012 | [4] 0.131 | [5] 0.092

MYCBP (UniProt Q99417)
inactive: [1] 0.018 | [2] 0.035 | [3] 0.046 | [4] -0.009 | [5] 0.035

MTHFSD (UniProt Q2M296)
inactive: [2] -0.136 | [4] 0.042 | [5] 0.039

MSN (UniProt P26038)
inactive: [1] -0.015 | [2] 0.032 | [3] -0.019 | [4] -0.015 | [5] -0.028

MTA3 (UniProt Q9BTC8)
inactive: [4] -0.11

MYH6 (UniProt P13533)
inactive: [2] 0.002 | [5] -0.183

Taken from the entries so far (two entries):
MTA3 (UniProt Q9BTC8)
inactive: [4] -0.11

MYH6 (UniProt P13533)
inactive: [2] 0.002 | [5] -0.183

(list continues)

MYL6B (UniProt P14649)
inactive: [1] -0.012 | [2] 0 | [3] 0.059 | [4] -0.022 | [5] 0.032

MYO1B (UniProt O43795)
inactive: [3] -0.011

MTHFD1L (UniProt B7ZM99)
inactive: [1] 0.009 | [2] 0.166 | [3] 0.257 | [5] -0.053

MT-ATP8 (UniProt P03928)
inactive: [1] -0.08 | [4] 0.034
